Positions count from the first letter of the chain named. These are yes or no findings as the source states them, for the method shown. Binding seen in cells or lysates may run through a third protein. Binding calls can cover weak binding; strength is not graded here. Tags and fused reporters may be left off the sequences shown.
Tests used:
Experiment in all cases: co-IP; lysate of about 60 Drosophila heads co-expressing hCHCHD2-MYC and dp32-3xHA (GMR-GAL4), RIPA lysis buffer with protease inhibitor, EZview Red Anti-c-Myc Affinity Gel, 2 h at 4 °C; Western blot with anti-HA; n = 3
[1] = target: T1, hCHCHD2-Arg145Gln-MYC (transgenic Drosophila) (human) (UniProt Q9Y6H1)
T1 sequence: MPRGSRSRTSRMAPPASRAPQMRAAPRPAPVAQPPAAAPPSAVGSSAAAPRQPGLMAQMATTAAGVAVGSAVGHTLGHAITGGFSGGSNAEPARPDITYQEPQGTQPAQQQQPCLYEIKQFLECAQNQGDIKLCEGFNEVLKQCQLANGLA

Amino acid sequences for entries named in this document (tags omitted). A change or cut given only in a name is not applied to a line headed by its entry.
UniProt A1ZAX4: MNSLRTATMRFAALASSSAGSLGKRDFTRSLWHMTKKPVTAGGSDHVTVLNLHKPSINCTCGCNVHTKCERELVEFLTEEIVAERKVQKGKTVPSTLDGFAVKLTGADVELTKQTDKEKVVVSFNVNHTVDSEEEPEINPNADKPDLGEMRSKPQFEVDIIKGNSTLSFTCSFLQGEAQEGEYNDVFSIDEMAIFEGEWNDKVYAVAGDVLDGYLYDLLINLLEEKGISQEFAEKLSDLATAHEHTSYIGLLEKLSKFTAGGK

[2] = target: T2, hCHCHD2-Thr61Ile-MYC (transgenic Drosophila) (human) (UniProt Q9Y6H1)
T2 sequence: T1 sequence with T61I, Q145R

[3] = target: T3, wild type hCHCHD2-MYC (transgenic Drosophila) (human) (UniProt Q9Y6H1)
T3 sequence: T1 sequence with Q145R

Measured: binding

dp32-3xHA (from UniProt A1ZAX4)
binds: all assays above
